The results in this text go back to publication doi:10.1101/2021.08.24.457590.

In experiment [1] the target is T1, HA-tagged hamster SCAP (hamster) (UniProt P97260).
T1 sequence: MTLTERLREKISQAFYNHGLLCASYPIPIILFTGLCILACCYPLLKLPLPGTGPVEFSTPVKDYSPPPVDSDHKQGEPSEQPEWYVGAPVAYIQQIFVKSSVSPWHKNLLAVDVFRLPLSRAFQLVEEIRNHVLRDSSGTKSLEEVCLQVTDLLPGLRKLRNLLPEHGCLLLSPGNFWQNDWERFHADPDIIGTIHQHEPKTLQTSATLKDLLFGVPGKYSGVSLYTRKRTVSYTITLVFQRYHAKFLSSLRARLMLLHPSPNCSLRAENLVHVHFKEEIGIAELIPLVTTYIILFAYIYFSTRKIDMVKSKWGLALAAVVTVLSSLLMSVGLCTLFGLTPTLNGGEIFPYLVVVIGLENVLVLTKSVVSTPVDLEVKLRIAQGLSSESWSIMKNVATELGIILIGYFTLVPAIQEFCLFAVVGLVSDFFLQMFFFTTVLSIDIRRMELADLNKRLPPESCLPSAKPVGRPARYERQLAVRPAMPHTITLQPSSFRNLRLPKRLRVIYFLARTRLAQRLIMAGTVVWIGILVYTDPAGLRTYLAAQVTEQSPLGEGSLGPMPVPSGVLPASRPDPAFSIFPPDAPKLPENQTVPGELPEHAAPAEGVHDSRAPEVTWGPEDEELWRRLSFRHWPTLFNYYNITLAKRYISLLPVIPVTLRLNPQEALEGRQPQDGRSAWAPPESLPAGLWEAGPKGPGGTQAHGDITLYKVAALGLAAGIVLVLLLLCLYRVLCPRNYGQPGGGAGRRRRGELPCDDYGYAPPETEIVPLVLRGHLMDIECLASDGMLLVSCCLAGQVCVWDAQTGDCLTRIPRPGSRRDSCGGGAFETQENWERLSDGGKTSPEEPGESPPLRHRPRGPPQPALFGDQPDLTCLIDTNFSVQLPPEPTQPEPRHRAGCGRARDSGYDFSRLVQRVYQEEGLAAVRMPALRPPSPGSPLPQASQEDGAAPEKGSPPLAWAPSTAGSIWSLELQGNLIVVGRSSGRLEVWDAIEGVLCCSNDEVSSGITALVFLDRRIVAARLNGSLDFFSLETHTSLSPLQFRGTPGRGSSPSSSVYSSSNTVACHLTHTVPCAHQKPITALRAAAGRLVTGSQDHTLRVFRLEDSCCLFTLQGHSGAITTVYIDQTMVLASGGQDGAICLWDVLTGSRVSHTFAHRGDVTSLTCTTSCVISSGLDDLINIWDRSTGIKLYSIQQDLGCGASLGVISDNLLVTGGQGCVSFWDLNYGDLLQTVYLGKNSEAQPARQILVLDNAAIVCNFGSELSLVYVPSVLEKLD
Briefly: co-IP.

Experiment [2] has as its target T2, Myc-tagged human Insig1 (human) (UniProt O15503).
T2 sequence: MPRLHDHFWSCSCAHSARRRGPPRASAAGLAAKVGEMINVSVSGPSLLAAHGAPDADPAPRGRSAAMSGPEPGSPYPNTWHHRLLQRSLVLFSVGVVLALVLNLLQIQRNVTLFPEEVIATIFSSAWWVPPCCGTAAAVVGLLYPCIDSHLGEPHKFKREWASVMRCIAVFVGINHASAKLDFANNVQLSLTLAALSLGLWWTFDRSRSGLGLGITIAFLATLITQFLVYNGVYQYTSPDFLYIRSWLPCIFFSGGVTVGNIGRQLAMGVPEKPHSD
Put plainly: co-IP.

No constants are given. Whether binding was seen depends on the method and setting. Binding seen in cells or lysates may run through a third protein. Some binding calls cover weakened binding; strength is not graded here. Sequences can lack the tags named with a protein.

B1: V5-tagged human RHBDL4 (enzyme, UniProt Q8TEB9-1 1-315)
chain: MQRRSRGINTGLILLLSQIFHVGINNIPPVTLATLALNIWFFLNPQKPLYSSCLSVEKCYQQKDWQRLLLSPLHHADDWHLYFNMASMLWKGINLERRLGSRWFAYVITAFSVLTGVVYLLLQFAVAEFMDEPDFKRSCAVGFSGVLFALKVLNNHYCPGGFVNILGFPVPNRFACWVELVAIHLFSPGTSFAGHLAGILVGLMYTQGPLKKIMEACAGGFSSSVGYPGRQYYFNSSGSSGYQDYYPHGRPDHYEEAPRNYDTYTAGLSEEEQLERALQASLWDRGNTRNSPPPYGFHLSPEEMRRQRLHRFDSQ
Take B1: the binding result in experiment [1] and in experiment [2] was “binds” each time.

B2: Myc-tagged human Insig1 (protein, UniProt O15503-1 1-277)
chain: MPRLHDHFWSCSCAHSARRRGPPRASAAGLAAKVGEMINVSVSGPSLLAAHGAPDADPAPRGRSAAMSGPEPGSPYPNTWHHRLLQRSLVLFSVGVVLALVLNLLQIQRNVTLFPEEVIATIFSSAWWVPPCCGTAAAVVGLLYPCIDSHLGEPHKFKREWASVMRCIAVFVGINHASAKLDFANNVQLSLTLAALSLGLWWTFDRSRSGLGLGITIAFLATLITQFLVYNGVYQYTSPDFLYIRSWLPCIFFSGGVTVGNIGRQLAMGVPEKPHSD
Regarding B2, in experiment [1], the binding entry is reported as “binds”.
